Experimental data as given in PubChem BioAssay AID1439 (NMMLSC, 2008).
The campaign covered roughly 220,000 compounds. About 770 (0.35%) were called active. All entries are inconclusive by the source's own rule. Clear calls are listed elsewhere. No stated cut-off is given here; in the data, active means binding response below about 49% or above about 150%; inconclusive means no clear call, values can overlap the other calls; inactive means in between. Some results for these compounds are left out of this collection, so the calls shown say nothing about other tests.

The chains behind the UniProt entries cited, without tags or fusion partners.
UniProt P09471, whole entry: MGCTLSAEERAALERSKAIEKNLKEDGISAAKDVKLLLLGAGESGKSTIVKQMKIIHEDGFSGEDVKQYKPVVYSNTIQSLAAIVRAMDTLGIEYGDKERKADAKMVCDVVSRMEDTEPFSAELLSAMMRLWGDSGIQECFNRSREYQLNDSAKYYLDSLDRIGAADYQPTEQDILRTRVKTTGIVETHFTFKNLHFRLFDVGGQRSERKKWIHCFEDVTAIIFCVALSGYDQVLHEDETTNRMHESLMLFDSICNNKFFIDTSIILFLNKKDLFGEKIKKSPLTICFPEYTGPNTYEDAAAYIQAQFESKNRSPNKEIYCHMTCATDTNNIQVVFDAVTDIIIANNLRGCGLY

molecular target: Guanine nucleotide-binding protein G(o) subunit alpha (Homo sapiens) (UniProt P09471); assay: RGS7-Galphao binding modulators, primary screen, biochemical, multiplexed bead flow cytometry (AID 1439); conditions: at 10 µM, actives lie on both sides;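 further: fluorescent Galphao held in activated GDP-AlF4 state binding bead-coupled RGS7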

Row | Structure (SMILES) | binding response (% of control)
1 | CCN(CC)CC(C)C(C)OC(=O)C(O)(c1ccccc1)c1ccccc1 (stereo not drawn) | inconclusive: 91.9%
2 | COc1cccc(C(=O)NCC2(N3CCCCC3)CCCCC2)c1 | inconclusive: 77.2%
3 | COc1ccc(Br)c(C(=O)NCC2(N3CCCCC3)CCCCC2)c1 | inconclusive: 262%
